Measurements from article PMC5016158.
Results are given in words; binding and its absence hold for the method and conditions named. In cells and extracts the contact can be indirect. Some results given as binding are weak or reduced against the parent protein; the word gives no strength.

The chains behind the UniProt entries cited, without tags or fusion partners.
UniProt Q9NYV8: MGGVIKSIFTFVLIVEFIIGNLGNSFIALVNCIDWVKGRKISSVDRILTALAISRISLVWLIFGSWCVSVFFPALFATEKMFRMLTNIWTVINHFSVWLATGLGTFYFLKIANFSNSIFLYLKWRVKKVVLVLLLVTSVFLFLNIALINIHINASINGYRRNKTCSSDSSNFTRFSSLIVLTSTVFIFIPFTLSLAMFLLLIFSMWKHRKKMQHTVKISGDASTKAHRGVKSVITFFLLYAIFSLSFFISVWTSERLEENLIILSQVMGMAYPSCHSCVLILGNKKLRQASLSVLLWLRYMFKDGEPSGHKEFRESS

Molecular target: β2AR-VN (UniProt P07550)
Assay: split reporter; BiFC with Venus fragments VN and VC in live HEK-293T cells, confocal imaging

binding: binds
Substance: TAS2R14-VC (from UniProt Q9NYV8 1-317) (receptor)
